Values from PubChem BioAssay AID1159601 (NIAID, 2016).
Purpose: 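Which toll-like receptor pathway genes are needed for TNF promoter activation by Pam3CSK4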 (primary screen). Cell system: human THP-1 reporter cells differentiated with PMA into macrophage-like cells. Knock-down reagent: single siRNA against human genes. Timing: ligand added 4 hours before read-out; cells assayed 48 to 72 hours after siRNA transfection. Challenge: Pam3CSK4 (TLR2 ligand) for 4 hours; dose not given. Detection: 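TNF promoter dual-luciferase ratio measured 4 h after Pam3CSK4, converted to robust z-scores against negative controls and averaged across replicates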. Direction: TNF reporter z-score: higher = stronger TNF promoter reporter activity. Call rule: 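The depositor grades each siRNA by the size of its mean z-score in either direction, with steps at 1, 1.5, 2 and 2.5; active calls sit near -1.5 or below, or near 1.5 or above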. Calls: active = clear change (up or down); inactive = little change.
Here is one part, drawn at random, of 756 reagents tested. 143 of all reagents (19%) count as active. 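Calls include both lowered and raised reporter signal; each row is a single siRNA, not a gene summary; Pam3CSK4 dose not stated.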 Entries without a mark were called inactive. Reagents against one gene are numbered here. Not stated in the record: the amount of reagent.

| gene symbol | reagent | TNF reporter z-score, replicate mean |
| --- | --- | --- |
| TAB3 | 1 | -0.312 |
| TAB3 | 2 | -0.404 |
| TAB3 | 3 | -0.281 |
| TAB3 | 4 | -0.0874 |
| TAB3 | 5 | 1.46 |
| TAB3 | 6 | -0.534 |
| TNF | 1 | -0.0444 |
| TNF | 2 | -1.34 |
| TNF | 3 | -0.998 |
| TNF | 4 | -0.515 |
| TNF | 5 | -1.85 (active) |
| TNF | 6 | -3.32 (active) |
| NFKBIA | 1 | -1.38 |
| NFKBIA | 2 | 0.236 |
| NFKBIA | 3 | 0.248 |
| NFKBIA | 4 | -0.936 |
| NFKBIA | 5 | -0.625 |
| NFKBIA | 6 | -0.0706 |
| ARF6 | 1 | 0.657 |
| ARF6 | 2 | -0.129 |
| ARF6 | 3 | 0.675 |
| ARF6 | 4 | -1.51 (active) |
| ARF6 | 5 | -0.618 |
| ARF6 | 6 | 0.0172 |
| TAB1 | 1 | -1.07 |
| TAB1 | 2 | -1.97 (active) |
| TAB1 | 3 | -0.204 |
| TAB1 | 4 | -1.31 |
| TAB1 | 5 | -1.52 (active) |
| TAB1 | 6 | -2.11 (active) |
| TICAM2 | 1 | -0.309 |
| TICAM2 | 2 | 0.537 |
| TICAM2 | 3 | -0.573 |
| TICAM2 | 4 | 0.647 |
| TICAM2 | 5 | -1.69 (active) |
| TICAM2 | 6 | -1.04 |
| IL6 | 1 | 0.661 |
| IL6 | 2 | -0.972 |
| IL6 | 3 | -1.19 |
| IL6 | 4 | -0.0535 |
| IL6 | 5 | -1.27 |
| IL6 | 6 | -0.266 |
| UBE2N | 1 | -0.795 |
| UBE2N | 2 | -1.63 (active) |
| UBE2N | 3 | 0.451 |
| UBE2N | 4 | -0.422 |
| UBE2N | 5 | -0.889 |
| UBE2N | 6 | 1.28 |
| CXCL9 | 1 | -0.764 |
| CXCL9 | 2 | -0.951 |
| CXCL9 | 3 | -1.16 |
| CXCL9 | 4 | -1.24 |
| CXCL9 | 5 | -0.0966 |
| CXCL9 | 6 | 0.131 |
| ATF7 | 1 | -1.86 (active) |
| ATF7 | 2 | -0.784 |
| ATF7 | 3 | -1.11 |
| ATF7 | 4 | -1.03 |
| ATF7 | 5 | -2.25 (active) |
| ATF7 | 6 | -0.847 |
| MAPK13 | 1 | -1.71 (active) |
| MAPK13 | 2 | -0.634 |
| MAPK13 | 3 | -2.36 (active) |
| MAPK13 | 4 | -0.201 |
| MAPK13 | 5 | -0.446 |
| MAPK13 | 6 | -0.475 |
| CCL3 | 1 | -1.21 |
| CCL3 | 2 | -0.313 |
| CCL3 | 3 | 0.0509 |
| CCL3 | 4 | -0.208 |
| CCL3 | 5 | -0.486 |
| CCL3 | 6 | -0.156 |
| TANK | 1 | 0.877 |
| TANK | 2 | 3.05 (active) |
| TANK | 3 | -0.0519 |
| TANK | 4 | 0.941 |
| TANK | 5 | 1.29 |
| TANK | 6 | 0.774 |

Taken from above:
Result for UBE2N #3 under “TNF reporter z-score, replicate mean”: 0.451
IL6 #5, TNF reporter z-score, replicate mean: -1.27
Entry of ARF6 #3 in “TNF reporter z-score, replicate mean”: 0.675
Under “TNF reporter z-score, replicate mean”, TAB1 #5 has -1.52 (active)
Value for TAB3 #1 under “TNF reporter z-score, replicate mean”: -0.312
Value for TAB3 #3 under “TNF reporter z-score, replicate mean”: -0.281
